Values from PubChem BioAssay AID1053208 (Peter MacCallum Cancer Centre, 2014).
Here is an unselected part of about 17,000 reagents. 788 of them (4.7%) count as active. 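Calls rest on z-score classes alone; an extra cut-off of viability at most 70% of control was not applied to them.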 Reagent sequences are not shown.

Screen: 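Synthetic lethal interactions between gene loss and doxorubicin in osteosarcoma cells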 (primary screen)
System: mouse osteosarcoma cells, early-passage culture from an engineered mouse model of fibroblastic bone tumour
Knock-down reagent: siRNA pool against mouse genes, 40 nM
Timing: about 120 h (48 h before drug, then 72 h with drug)
Treatment: doxorubicin 100 nM for 72 h, roughly 30-40% inhibitory dose
Detection: 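Viability read as ATP luminescence after 72 h of 100 nM doxorubicin or none, duplicate wells averaged, scaled to non-targeting siRNA, then expressed as robust z-scores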
Direction: viability z-score with doxorubicin and doxorubicin viability vs non-targeting: higher = more viable cells under doxorubicin; viability z-score without drug: higher = more viable cells with knock-down alone; z-score of drug to no-drug ratio: higher = less drug sensitisation by knock-down
Rule for the call: 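a pool counts as active when its viability z-score with doxorubicin is -2 or below and its z-score without drug lies between -2 and 2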

| Gene | combined z-score class | viability z-score with doxorubicin | viability z-score without drug | z-score of drug to no-drug ratio | doxorubicin viability vs non-targeting | outcome |
| --- | --- | --- | --- | --- | --- | --- |
| Vnn3 | no change with or without drug | -1.24 | -0.84 | -0.67 | 0.83 | inactive |
| Hsph1 | no change with or without drug | -0.22 | 0.17 | -0.22 | 0.92 | inactive |
| Adnp | no change with or without drug | -1.12 | -1.01 | -0.45 | 0.84 | inactive |
| Syt11 | no change with or without drug | -0.67 | -1.18 | 0.22 | 0.88 | inactive |
| Gpt | no change with or without drug | -1.01 | -1.18 | -0.11 | 0.85 | inactive |
| Dguok | no change with or without drug | 1.12 | 0 | 1.24 | 1.04 | inactive |
| Atp6v1g2 | no change with or without drug | 0.67 | 0.84 | 0.22 | 1 | inactive |
| Ltb4r1 | no change with or without drug | -1.91 | 1.35 | -2.59 | 0.77 | inactive |
| Ntpcr | no change with or without drug | -0.34 | 0.34 | -0.45 | 0.91 | inactive |
| Dmp1 | low cell count with doxorubicin only | -2.14 | 1.85 | -3.04 | 0.75 | active |
| Zc3h10 | no change with or without drug | -1.24 | 0.51 | -1.46 | 0.83 | inactive |
| Kif5c | no change with or without drug | -0.11 | -1.18 | 0.9 | 0.93 | inactive |
| Nfatc4 | no change with or without drug | 1.35 | 1.85 | 0.22 | 1.06 | inactive |
| Trps1 | no change with or without drug | -0.45 | 0.51 | -0.67 | 0.9 | inactive |
| Gfra4 | no change with or without drug | -1.8 | -1.85 | -0.56 | 0.78 | inactive |
| Rdh1 | no change with or without drug | -1.24 | -0.51 | -0.9 | 0.83 | inactive |
| Fam234a | no change with or without drug | 0.22 | 0.17 | 0.22 | 0.96 | inactive |
| Tamalin | no change with or without drug | -0.45 | -1.18 | 0.45 | 0.9 | inactive |
| Plcb2 | high cell count without drug only | 1.35 | 2.53 | -0.22 | 1.06 | inactive |
| Ormdl2 | low cell count with doxorubicin only | -2.14 | -0.84 | -1.69 | 0.75 | active |
| Lrrc7 | no change with or without drug | -0.34 | 0.51 | -0.56 | 0.91 | inactive |
| Cntn6 | no change with or without drug | -0.67 | 0.34 | -0.79 | 0.88 | inactive |
| Zfp938 | no change with or without drug | -0.67 | -1.18 | 0.22 | 0.88 | inactive |
| Tardbp | no change with or without drug | -1.46 | -1.52 | -0.45 | 0.81 | inactive |
| Mfap3 | no change with or without drug | 0.79 | 0.17 | 0.79 | 1.01 | inactive |
| Nat8 | no change with or without drug | 0.45 | 1.18 | -0.22 | 0.98 | inactive |
| Musk | no change with or without drug | 0 | -0.51 | 0.45 | 0.94 | inactive |
| Acbd6 | no change with or without drug | 0.79 | 1.01 | 0.22 | 1.01 | inactive |
| Brms1 | high cell count with doxorubicin only | 2.02 | 0.17 | 2.14 | 1.12 | inactive |
| Cryz | no change with or without drug | 0.56 | 0.17 | 0.56 | 0.99 | inactive |
| Pcdhb12 | low cell count with doxorubicin only | -2.59 | -1.52 | -1.69 | 0.71 | active |
| Cenpu | no change with or without drug | -0.9 | 1.01 | -1.46 | 0.86 | inactive |
| Ndrg4 | no change with or without drug | 0.67 | 0.51 | 0.45 | 1 | inactive |
| Eif2s2 | no change with or without drug | -1.35 | -0.17 | -1.24 | 0.82 | inactive |
| H2ax | no change with or without drug | 1.12 | 0.51 | 0.9 | 1.04 | inactive |
| Mapk14 | no change with or without drug | -0.67 | -1.35 | 0.34 | 0.88 | inactive |
| Gtpbp6 | no change with or without drug | -1.57 | -1.35 | -0.67 | 0.8 | inactive |
| Gm4884 | no change with or without drug | 0 | 0.17 | 0 | 0.94 | inactive |
| Ncan | no change with or without drug | -0.67 | 0.84 | -1.12 | 0.88 | inactive |
| Mif4gd | no change with or without drug | -1.12 | 1.18 | -1.8 | 0.84 | inactive |
| Dysf | no change with or without drug | 1.57 | 0.84 | 1.12 | 1.08 | inactive |
| Dph5 | no change with or without drug | 0 | -0.51 | 0.45 | 0.94 | inactive |
| Fkbp10 | no change with or without drug | 0.45 | 1.18 | -0.22 | 0.98 | inactive |
| Tmem38a | no change with or without drug | -0.56 | -1.18 | 0.34 | 0.89 | inactive |
| Cacnb4 | no change with or without drug | 0.22 | 0 | 0.34 | 0.96 | inactive |
| Btbd16 | no change with or without drug | 0 | 0.84 | -0.45 | 0.94 | inactive |
| Nras | no change with or without drug | 0.22 | -0.17 | 0.45 | 0.96 | inactive |
| Poli | no change with or without drug | 0.22 | 0 | 0.34 | 0.96 | inactive |
| Spon1 | no change with or without drug | -1.12 | -0.67 | -0.67 | 0.84 | inactive |
| Atp5mj | no change with or without drug | 1.12 | 0.51 | 0.9 | 1.04 | inactive |
| Chid1 | no change with or without drug | 1.8 | 0.51 | 1.57 | 1.1 | inactive |
| Paxip1 | no change with or without drug | -1.12 | -1.01 | -0.45 | 0.84 | inactive |
| Gxylt2 | no change with or without drug | -0.22 | -1.18 | 0.79 | 0.92 | inactive |
| BC048671 | no change with or without drug | 0.9 | 0.17 | 0.9 | 1.02 | inactive |
| Myo19 | no change with or without drug | 1.35 | -0.67 | 2.02 | 1.06 | inactive |
| Mrpl57 | no change with or without drug | 0 | -1.18 | 1.01 | 0.94 | inactive |
| Tdrp | no change with or without drug | -0.11 | 0.67 | -0.45 | 0.93 | inactive |
| Or2y13 | no change with or without drug | 0 | -0.51 | 0.45 | 0.94 | inactive |
| Nfat5 | no change with or without drug | 1.12 | 1.18 | 0.45 | 1.04 | inactive |
| Dnd1 | no change with or without drug | 1.01 | 1.85 | -0.11 | 1.03 | inactive |
| Cep112 | no change with or without drug | 0.9 | -0.51 | 1.46 | 1.02 | inactive |
| Cuedc2 | no change with or without drug | 0.22 | -0.51 | 0.67 | 0.96 | inactive |
| D630028G08Rik | low cell count with doxorubicin only | -2.14 | 1.69 | -3.04 | 0.75 | active |

Targets above whose target name begins with N or n (7):
| Gene | combined z-score class | viability z-score with doxorubicin | viability z-score without drug | z-score of drug to no-drug ratio | doxorubicin viability vs non-targeting | outcome |
| --- | --- | --- | --- | --- | --- | --- |
| Ntpcr | no change with or without drug | -0.34 | 0.34 | -0.45 | 0.91 | inactive |
| Nfatc4 | no change with or without drug | 1.35 | 1.85 | 0.22 | 1.06 | inactive |
| Nat8 | no change with or without drug | 0.45 | 1.18 | -0.22 | 0.98 | inactive |
| Ndrg4 | no change with or without drug | 0.67 | 0.51 | 0.45 | 1 | inactive |
| Ncan | no change with or without drug | -0.67 | 0.84 | -1.12 | 0.88 | inactive |
| Nras | no change with or without drug | 0.22 | -0.17 | 0.45 | 0.96 | inactive |
| Nfat5 | no change with or without drug | 1.12 | 1.18 | 0.45 | 1.04 | inactive |
